# Reference: the supplement of paper PMC10338343
# ± gives the standard deviation. Only a part is listed here, and it is no random draw. Many of these values have a large error. The list shows a part of the results.
# What was measured:
# [1] = test system: MILI (PIWIL2) piRISC loaded with L1MC piRNA (26 nt); assay: pre-steady-state target cleavage rate (min^-1); higher = faster piRNA-guided slicing of the target; conditions: guide: L1MC piRNA 5'p-UAACUAAAUACUAUGCAAGCUGUAGG
# Method in brief: (§1)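 Cleave-'n-Seq: a transcribed, DNA-blocked target RNA library (0.1 nM) was mixed with 1 nM active affinity-purified piRISC carrying one synthetic guide, with or without 500 nM GTSF1 partner protein, in HEPES–potassium acetate buffer at 33 °C for 0–8 or 0–960 min. Uncleaved targets were sequenced and normalised to depth and to weakly complementary targets. Three trials were pooled, and k3 was capped at 0.0001 min^-1. The pre-steady-state cleavage rate came from a burst-and-steady-state fit.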
# [2] = test system: EfPiwi piRISC loaded with L1MC piRNA (26 nt); assay: pre-steady-state target cleavage rate (min^-1); guide: L1MC piRNA 5'p-UAACUAAAUACUAUGCAAGCUGUAGG; MIWI and MILI are mouse PIWI proteins and EfPiwi is from a freshwater sponge; tags in brackets are library labels; higher = faster piRNA-guided slicing of the target
# Method in brief: as §1
# [3] = auxiliary factor: none (no GTSF1)
# [4] = auxiliary factor: 500 nM Ephydatia muelleri Gtsf1
# [5] = auxiliary factor: none (no Gtsf1)
# [6] = auxiliary factor: 500 nM mouse GTSF1
Sequence,"pre-steady-state target cleavage rate [1, 3]","pre-steady-state target cleavage rate [2, 4]","pre-steady-state target cleavage rate [2, 5]","pre-steady-state target cleavage rate [1, 6]"
UCCUGGAUGUGCUUGGCAUAGUAUUUAGUUA,0.00258 ± 0.0036,0.00458 ± 0.0029,0.000215 ± 0.035,
UCCUGCUAGAGCUUGCAUAGUAUUUAGAAA,0.00127 ± 0.005,0.00419 ± 0.0022,< 0.0001,
UCCUGCUACAGGUUGCAUAGAAUUUAGUUA,0.00241 ± 0.0026,0.00649 ± 0.0018,0.00101 ± 0.0083,
UCCUGCUACAGCUGGCAUAGUAUUUAGUUA,,0.00937 ± 0.0024,0.000724 ± 0.009,0.293 ± 0.019
UCCUGGAACAGCUUGCAUAGUUUUUACUUA,0.00119 ± 0.0051,0.000494 ± 0.016,0.000512 ± 0.016,
UCCUGGAUGUCGAACCAUAGUGUUUAGUUA,0.000372 ± 0.011,0.000127 ± 0.024,0.000207 ± 0.028,
UCCUGGAACAGCUUGCAUAGUAUUUCAGUUA,0.00116 ± 0.0061,0.00308 ± 0.0026,0.000466 ± 0.017,
UCCUGGUACAGCUUGCAUAGUAUUAUCUUA,0.00201 ± 0.0041,0.00167 ± 0.0021,0.000581 ± 0.014,
UCCUCCUACAGCUUGCAUAGAAUUUUGUUA,0.00146 ± 0.0037,0.00325 ± 0.0016,0.000318 ± 0.014,
UCCUCCUACAGCUAGCAUAGUAUUUACUUA,0.00244 ± 0.0027,0.00296 ± 0.0027,0.000439 ± 0.011,
UCCUGCAACAGCUUGCAUAGUAUUUACAAA,0.00137 ± 0.0047,0.00305 ± 0.0022,0.000362 ± 0.022,
UCCUGGUUCAGCUUGCAUAGUAUUUAGAUA,0.00307 ± 0.0033,0.00378 ± 0.002,0.000817 ± 0.011,
UCCUGGAACAGCUUGCAUAGUAUUUAUGUUA,0.00295 ± 0.0035,0.0035 ± 0.002,0.0019 ± 0.007,
UCCUGGAACAGCUUGCAAACUAUUUAGUUA,0.00144 ± 0.0043,0.00228 ± 0.0037,0.000768 ± 0.011,
UCCUGCUACAGCUUGCAUAGUAUUAUCAAA,0.0015 ± 0.0029,0.00232 ± 0.0026,0.000335 ± 0.019,
UCCUGGAUGUCGAUGCAUAGUAUUAAGUAA,0.00109 ± 0.0048,0.000774 ± 0.0089,0.000364 ± 0.016,
UCCUGGAUGAGCUUGCAUAGUAUUUCGUUA,0.00132 ± 0.0061,0.00352 ± 0.0019,0.000831 ± 0.01,
UCCUGGAUGUGCUUGCAUACUAUUUAGAUA,0.000556 ± 0.013,0.00202 ± 0.0015,0.000444 ± 0.015,
UCCUGCUACAGCUUGCAUAGUUUUUACUUA,0.0014 ± 0.0047,0.000718 ± 0.0081,0.000254 ± 0.027,
UCCUGGAUGAGCUUGCAUAGUAUUUAGGUA,0.0021 ± 0.0051,0.00204 ± 0.0025,0.000767 ± 0.015,
UCCUGGAUGAGCUUGGAUAGUAUUUACAAA,0.000214 ± 0.028,0.000598 ± 0.0062,0.000143 ± 0.056,
UCCUGCGACAGCUUGCAUAGUAUUUAGUUA,,0.0339 ± 0.0075,0.00118 ± 0.0069,0.298 ± 0.016
UCCUGGAUGUGCUUGCAUACUAUUUACUUA,0.000894 ± 0.0073,0.000701 ± 0.0075,0.000214 ± 0.045,
UCCUGGAUCAGCUUGCAUAGUAUUUUGAAA,0.00267 ± 0.0032,0.00318 ± 0.0016,0.00081 ± 0.011,
UCCUGGAUCAGCAUGCAUAGUAUUUAGUUA,,0.12 ± 0.026,0.00148 ± 0.0056,0.314 ± 0.019
UCCUGGUACAGCUUGCAUAGUUAAUUCAAA,0.00215 ± 0.0039,0.000552 ± 0.012,0.000418 ± 0.029,

Sequence,"pre-steady-state target cleavage rate [1, 3]","pre-steady-state target cleavage rate [2, 4]","pre-steady-state target cleavage rate [2, 5]","pre-steady-state target cleavage rate [1, 6]"
UCCUGGAUCAGCUUGCAUUCUAUUUAGAAA,0.000229 ± 0.024,0.00122 ± 0.0032,0.000264 ± 0.023,
UCCUCCUAGAGCUUGCAUAGUUUUUAGUUA,0.00205 ± 0.0029,0.00428 ± 0.0017,0.000601 ± 0.0084,
UCCUGGAUGAGCUUGCAUUCUAUUUAGUUA,0.00121 ± 0.0046,0.00167 ± 0.0028,0.000265 ± 0.028,
UCCUGGAACACCUUGCAUAGUAUAUAGUUA,0.00209 ± 0.0029,0.0051 ± 0.0035,0.000989 ± 0.013,
UCCUGGAACAGCUUGGAUAGUAUUUAGAUA,0.0018 ± 0.0035,0.00231 ± 0.0029,0.000201 ± 0.045,
UCCUGGAUGAGCAUGCAUAGUAUUUUGUUA,0.00297 ± 0.0036,0.00201 ± 0.0024,0.000641 ± 0.012,
UCCUCCUACAGCUUGCAUAGAAUUUAGUUA,0.00257 ± 0.0032,0.0078 ± 0.0023,0.00149 ± 0.0052,
UCCUGGAACAGAUUGCAUAGUAUUUAGUUA,,0.0572 ± 0.014,0.00165 ± 0.0051,0.284 ± 0.012
UCCUGGAACAGCUUGCAUUGUAUUUACAAA,0.000807 ± 0.007,0.00227 ± 0.0031,0.00036 ± 0.022,
UCCUGGAUGUGCUUGCAUAGUAUAUAGUAA,0.00105 ± 0.0068,0.000759 ± 0.0047,0.000279 ± 0.032,
UCCUGGAACAGCUUGCAUAGUAUUUAAUUA,0.00167 ± 0.0055,0.00345 ± 0.0024,0.000675 ± 0.018,
UCCUGCAACAGCUUGCAUAGUAUAUAGUUA,,0.00844 ± 0.0024,0.00136 ± 0.0062,0.36 ± 0.038
UCCUGGAACAGCUUGCAUACUAUUUUGUUA,0.00115 ± 0.0059,0.00252 ± 0.0023,0.000794 ± 0.011,
UCCUGGAUGAGCUAGCAUAGUAUUUACUUA,0.00208 ± 0.0039,0.000894 ± 0.004,0.000861 ± 0.012,
UCCUGGAUCCGCUUGCAUAGUAUUUAGUUA,,0.146 ± 0.029,0.000282 ± 0.036,0.297 ± 0.019
UCCUGGAUGAGCUAGCAUAGUAUAUAGUUA,0.0046 ± 0.0022,0.00211 ± 0.0031,0.000515 ± 0.012,0.242 ± 0.034
UCCUGGUACAGCUUGCAUUGUAUUUAGAUA,0.00193 ± 0.0053,0.00292 ± 0.0018,0.000281 ± 0.038,
UCCUGGAUGUGCUUGCUUAGUAUUAAGUUA,0.00288 ± 0.0034,0.000676 ± 0.0067,0.000126 ± 0.095,0.0615 ± 0.017
UCCUGCUACUGCUUGCAUAGAAUUUAGUUA,0.00256 ± 0.002,0.00563 ± 0.002,0.000963 ± 0.0059,0.045 ± 0.0093
UCCUGGAUGUCGAAGCAUACGUAUUUAGUUA,0.000239 ± 0.02,0.000161 ± 0.034,0.000326 ± 0.021,0.000337 ± 0.027
UCCUGGUACAGCUUGCAUAGUAAUUUAGUUA,0.0129 ± 0.0045,0.00647 ± 0.0026,0.00122 ± 0.011,0.186 ± 0.025
UCCUGGAUGUCGUUGCAUAGUAAAAAGUUA,0.00188 ± 0.0034,0.000334 ± 0.011,0.000244 ± 0.03,0.00309 ± 0.0044
UCCUGGUACAGCUUGCUUAGUAUUAAGUUA,0.00213 ± 0.0036,0.00311 ± 0.0027,0.00125 ± 0.0087,0.163 ± 0.041
UCCUGGUACACCUUGCAUAGUAUAUAGUUA,0.00256 ± 0.004,0.00195 ± 0.0034,0.000298 ± 0.025,0.311 ± 0.059
UCCUGCUACAGCUUGCAUAGUUUUAAGUUA,0.00193 ± 0.0034,0.00341 ± 0.0017,0.000699 ± 0.0082,0.0676 ± 0.015
UCCUCCUACAGCUUGCAUAGUAUUUGAGUUA,0.00484 ± 0.0026,0.00541 ± 0.0025,0.000816 ± 0.0083,0.199 ± 0.028

# A second format for some results above.
Sequence	pre-steady-state target cleavage rate [1, 3]	pre-steady-state target cleavage rate [2, 4]	pre-steady-state target cleavage rate [2, 5]	pre-steady-state target cleavage rate [1, 6]
UCCUGCUACAGGUUGCAUAGAAUUUAGUUA	0.00241 ± 0.0026	0.00649 ± 0.0018	0.00101 ± 0.0083	
UCCUGGAUGUCGAACCAUAGUGUUUAGUUA	0.000372 ± 0.011	0.000127 ± 0.024	0.000207 ± 0.028	
UCCUGGUACAGCUUGCAUAGUAUUAUCUUA	0.00201 ± 0.0041	0.00167 ± 0.0021	0.000581 ± 0.014	
UCCUCCUACAGCUUGCAUAGAAUUUUGUUA	0.00146 ± 0.0037	0.00325 ± 0.0016	0.000318 ± 0.014	
UCCUGCAACAGCUUGCAUAGUAUUUACAAA	0.00137 ± 0.0047	0.00305 ± 0.0022	0.000362 ± 0.022	
UCCUGGAACAGCUUGCAUAGUAUUUAUGUUA	0.00295 ± 0.0035	0.0035 ± 0.002	0.0019 ± 0.007	
UCCUGGAUGAGCUUGCAUAGUAUUUCGUUA	0.00132 ± 0.0061	0.00352 ± 0.0019	0.000831 ± 0.01	
UCCUGGAUGUGCUUGCAUACUAUUUAGAUA	0.000556 ± 0.013	0.00202 ± 0.0015	0.000444 ± 0.015	
UCCUGCUACAGCUUGCAUAGUUUUUACUUA	0.0014 ± 0.0047	0.000718 ± 0.0081	0.000254 ± 0.027	
UCCUGGAUGAGCUUGGAUAGUAUUUACAAA	0.000214 ± 0.028	0.000598 ± 0.0062	0.000143 ± 0.056	
UCCUGGAUGUGCUUGCAUACUAUUUACUUA	0.000894 ± 0.0073	0.000701 ± 0.0075	0.000214 ± 0.045	
UCCUGGAUCAGCUUGCAUUCUAUUUAGAAA	0.000229 ± 0.024	0.00122 ± 0.0032	0.000264 ± 0.023	
UCCUCCUAGAGCUUGCAUAGUUUUUAGUUA	0.00205 ± 0.0029	0.00428 ± 0.0017	0.000601 ± 0.0084	
UCCUGGAUGUGCUUGCAUAGUAUAUAGUAA	0.00105 ± 0.0068	0.000759 ± 0.0047	0.000279 ± 0.032	
UCCUGCAACAGCUUGCAUAGUAUAUAGUUA		0.00844 ± 0.0024	0.00136 ± 0.0062	0.36 ± 0.038
